Reference: the supplement of paper PMC10849652
This is one part of the list.

Sequences of proteins named here, by UniProt entry; tags and fusion partners are left off. A change or cut given only in a name is not applied to a line headed by its entry.
UniProt Q8IVM0: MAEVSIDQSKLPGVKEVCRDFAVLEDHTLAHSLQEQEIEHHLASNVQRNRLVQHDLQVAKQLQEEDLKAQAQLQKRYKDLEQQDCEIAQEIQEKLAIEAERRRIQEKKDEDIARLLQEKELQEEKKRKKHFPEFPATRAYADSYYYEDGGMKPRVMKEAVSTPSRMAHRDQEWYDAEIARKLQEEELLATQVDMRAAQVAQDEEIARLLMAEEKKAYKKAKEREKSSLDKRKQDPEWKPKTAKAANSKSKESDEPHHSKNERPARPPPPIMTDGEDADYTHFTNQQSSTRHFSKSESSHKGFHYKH
UniProt Q4VC31: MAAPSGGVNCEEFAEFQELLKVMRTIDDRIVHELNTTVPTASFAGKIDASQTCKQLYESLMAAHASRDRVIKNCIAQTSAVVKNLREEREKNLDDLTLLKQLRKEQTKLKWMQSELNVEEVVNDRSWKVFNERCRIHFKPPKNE
UniProt Q86X55: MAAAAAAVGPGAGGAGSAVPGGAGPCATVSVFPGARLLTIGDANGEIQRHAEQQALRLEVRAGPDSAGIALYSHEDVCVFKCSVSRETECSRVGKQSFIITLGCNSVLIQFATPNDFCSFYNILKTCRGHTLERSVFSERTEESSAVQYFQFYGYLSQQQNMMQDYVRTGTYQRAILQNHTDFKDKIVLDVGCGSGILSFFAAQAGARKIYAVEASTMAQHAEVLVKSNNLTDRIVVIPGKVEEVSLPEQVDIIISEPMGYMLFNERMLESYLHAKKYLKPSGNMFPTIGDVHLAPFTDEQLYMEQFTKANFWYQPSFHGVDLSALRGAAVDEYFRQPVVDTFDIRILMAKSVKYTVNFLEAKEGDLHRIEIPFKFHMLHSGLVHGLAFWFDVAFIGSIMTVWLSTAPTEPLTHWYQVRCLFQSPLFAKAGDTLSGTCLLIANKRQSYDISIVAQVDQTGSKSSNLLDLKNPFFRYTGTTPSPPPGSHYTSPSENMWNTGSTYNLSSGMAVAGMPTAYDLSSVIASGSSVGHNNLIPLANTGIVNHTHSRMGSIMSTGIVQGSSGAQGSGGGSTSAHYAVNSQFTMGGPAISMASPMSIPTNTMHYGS
UniProt P50990: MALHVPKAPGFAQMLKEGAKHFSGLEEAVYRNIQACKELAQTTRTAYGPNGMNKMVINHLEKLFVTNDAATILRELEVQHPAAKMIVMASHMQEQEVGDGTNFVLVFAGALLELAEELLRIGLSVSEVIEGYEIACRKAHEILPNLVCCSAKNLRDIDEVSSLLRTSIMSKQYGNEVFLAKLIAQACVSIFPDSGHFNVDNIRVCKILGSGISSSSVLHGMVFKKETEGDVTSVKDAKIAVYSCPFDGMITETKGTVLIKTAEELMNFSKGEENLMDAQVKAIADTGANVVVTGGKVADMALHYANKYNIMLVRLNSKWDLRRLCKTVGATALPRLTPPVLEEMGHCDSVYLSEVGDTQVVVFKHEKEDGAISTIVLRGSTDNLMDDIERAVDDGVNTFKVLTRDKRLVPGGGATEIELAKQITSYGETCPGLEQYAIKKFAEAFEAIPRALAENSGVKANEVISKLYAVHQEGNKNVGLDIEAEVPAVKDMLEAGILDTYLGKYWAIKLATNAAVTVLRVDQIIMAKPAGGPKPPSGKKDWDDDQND
UniProt Q96CT7: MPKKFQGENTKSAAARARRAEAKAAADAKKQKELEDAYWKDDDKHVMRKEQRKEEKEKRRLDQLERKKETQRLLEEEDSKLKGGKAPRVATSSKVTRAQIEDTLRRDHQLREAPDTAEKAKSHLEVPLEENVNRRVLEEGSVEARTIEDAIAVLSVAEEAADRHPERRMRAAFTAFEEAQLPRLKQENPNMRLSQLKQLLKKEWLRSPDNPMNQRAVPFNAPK
UniProt P83916, whole entry, looked up: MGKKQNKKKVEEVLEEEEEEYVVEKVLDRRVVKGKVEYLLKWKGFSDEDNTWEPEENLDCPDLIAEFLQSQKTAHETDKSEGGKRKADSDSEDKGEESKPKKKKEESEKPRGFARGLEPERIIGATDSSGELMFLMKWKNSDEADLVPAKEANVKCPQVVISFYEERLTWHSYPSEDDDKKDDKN
UniProt Q9P219: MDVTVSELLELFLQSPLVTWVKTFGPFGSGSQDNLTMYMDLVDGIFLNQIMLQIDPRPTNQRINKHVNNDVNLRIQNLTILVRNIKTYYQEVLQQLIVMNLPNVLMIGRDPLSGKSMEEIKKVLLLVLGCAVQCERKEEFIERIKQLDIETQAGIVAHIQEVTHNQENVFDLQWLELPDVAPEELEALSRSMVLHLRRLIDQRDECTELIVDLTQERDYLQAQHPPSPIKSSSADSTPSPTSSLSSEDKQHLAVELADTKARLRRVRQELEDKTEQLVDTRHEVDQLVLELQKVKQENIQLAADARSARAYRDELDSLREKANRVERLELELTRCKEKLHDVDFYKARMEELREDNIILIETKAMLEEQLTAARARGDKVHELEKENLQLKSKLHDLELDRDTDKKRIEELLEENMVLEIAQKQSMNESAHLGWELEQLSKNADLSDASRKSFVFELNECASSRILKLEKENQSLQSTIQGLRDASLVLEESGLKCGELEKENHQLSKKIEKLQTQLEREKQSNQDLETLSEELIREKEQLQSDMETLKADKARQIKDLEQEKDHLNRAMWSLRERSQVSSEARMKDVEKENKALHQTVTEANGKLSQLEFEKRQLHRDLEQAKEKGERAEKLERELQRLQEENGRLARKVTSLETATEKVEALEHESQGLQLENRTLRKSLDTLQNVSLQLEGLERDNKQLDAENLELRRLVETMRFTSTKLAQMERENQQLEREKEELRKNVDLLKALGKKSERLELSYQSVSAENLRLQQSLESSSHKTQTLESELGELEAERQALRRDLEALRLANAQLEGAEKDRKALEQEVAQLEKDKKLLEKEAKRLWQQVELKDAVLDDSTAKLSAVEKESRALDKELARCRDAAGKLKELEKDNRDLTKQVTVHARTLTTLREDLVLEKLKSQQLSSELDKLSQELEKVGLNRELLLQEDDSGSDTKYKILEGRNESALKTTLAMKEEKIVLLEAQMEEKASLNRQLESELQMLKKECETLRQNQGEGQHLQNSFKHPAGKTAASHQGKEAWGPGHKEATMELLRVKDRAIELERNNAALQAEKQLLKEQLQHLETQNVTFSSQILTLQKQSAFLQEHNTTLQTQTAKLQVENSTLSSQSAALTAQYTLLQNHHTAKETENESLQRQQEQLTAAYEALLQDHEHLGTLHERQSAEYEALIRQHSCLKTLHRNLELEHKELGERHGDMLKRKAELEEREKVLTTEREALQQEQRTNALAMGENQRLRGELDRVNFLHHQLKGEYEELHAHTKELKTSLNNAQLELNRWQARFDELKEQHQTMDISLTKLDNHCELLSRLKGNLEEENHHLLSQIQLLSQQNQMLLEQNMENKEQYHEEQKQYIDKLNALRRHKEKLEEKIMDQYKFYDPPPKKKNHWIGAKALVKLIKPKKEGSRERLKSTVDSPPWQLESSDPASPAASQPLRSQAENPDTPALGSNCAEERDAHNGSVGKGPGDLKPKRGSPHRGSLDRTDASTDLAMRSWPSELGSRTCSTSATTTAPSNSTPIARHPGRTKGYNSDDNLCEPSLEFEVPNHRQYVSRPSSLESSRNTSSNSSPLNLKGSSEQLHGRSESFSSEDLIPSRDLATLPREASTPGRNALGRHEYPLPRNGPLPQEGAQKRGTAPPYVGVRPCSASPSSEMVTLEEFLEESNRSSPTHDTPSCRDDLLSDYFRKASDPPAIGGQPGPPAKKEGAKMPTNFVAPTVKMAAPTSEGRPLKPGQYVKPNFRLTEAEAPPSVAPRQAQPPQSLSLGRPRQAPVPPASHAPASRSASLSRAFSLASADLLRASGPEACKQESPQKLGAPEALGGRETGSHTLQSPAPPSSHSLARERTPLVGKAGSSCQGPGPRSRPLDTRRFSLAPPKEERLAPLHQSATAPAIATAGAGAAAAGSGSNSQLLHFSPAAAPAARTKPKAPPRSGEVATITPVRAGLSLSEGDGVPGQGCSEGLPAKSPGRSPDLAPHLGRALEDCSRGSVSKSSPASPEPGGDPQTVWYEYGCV
UniProt Q9Y2G2: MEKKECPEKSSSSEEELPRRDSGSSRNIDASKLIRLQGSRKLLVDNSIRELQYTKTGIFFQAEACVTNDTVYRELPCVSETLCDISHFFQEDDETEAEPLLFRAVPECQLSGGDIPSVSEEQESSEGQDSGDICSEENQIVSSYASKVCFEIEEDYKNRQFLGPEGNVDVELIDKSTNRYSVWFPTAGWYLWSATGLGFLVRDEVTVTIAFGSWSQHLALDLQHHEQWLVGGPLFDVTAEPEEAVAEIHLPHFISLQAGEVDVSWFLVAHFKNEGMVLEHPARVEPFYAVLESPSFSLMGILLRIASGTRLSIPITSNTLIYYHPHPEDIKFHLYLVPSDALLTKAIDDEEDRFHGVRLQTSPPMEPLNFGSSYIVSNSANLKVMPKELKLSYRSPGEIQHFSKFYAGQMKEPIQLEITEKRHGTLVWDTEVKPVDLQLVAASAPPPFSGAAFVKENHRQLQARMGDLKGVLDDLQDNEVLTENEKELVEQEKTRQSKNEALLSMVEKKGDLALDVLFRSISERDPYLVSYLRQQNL
UniProt Q96S94: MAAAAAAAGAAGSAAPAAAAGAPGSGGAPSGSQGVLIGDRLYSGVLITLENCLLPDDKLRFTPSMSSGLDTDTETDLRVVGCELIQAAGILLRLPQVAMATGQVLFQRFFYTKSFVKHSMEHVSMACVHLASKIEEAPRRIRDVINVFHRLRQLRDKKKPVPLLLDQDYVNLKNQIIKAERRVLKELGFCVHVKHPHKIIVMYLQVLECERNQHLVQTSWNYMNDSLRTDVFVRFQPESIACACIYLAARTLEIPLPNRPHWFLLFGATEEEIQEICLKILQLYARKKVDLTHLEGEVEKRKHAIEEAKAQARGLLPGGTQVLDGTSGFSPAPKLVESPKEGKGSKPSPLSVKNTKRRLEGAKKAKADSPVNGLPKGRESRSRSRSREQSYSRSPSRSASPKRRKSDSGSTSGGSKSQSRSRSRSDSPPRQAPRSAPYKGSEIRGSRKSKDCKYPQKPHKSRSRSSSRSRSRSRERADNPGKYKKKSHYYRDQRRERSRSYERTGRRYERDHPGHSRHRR
UniProt P15529: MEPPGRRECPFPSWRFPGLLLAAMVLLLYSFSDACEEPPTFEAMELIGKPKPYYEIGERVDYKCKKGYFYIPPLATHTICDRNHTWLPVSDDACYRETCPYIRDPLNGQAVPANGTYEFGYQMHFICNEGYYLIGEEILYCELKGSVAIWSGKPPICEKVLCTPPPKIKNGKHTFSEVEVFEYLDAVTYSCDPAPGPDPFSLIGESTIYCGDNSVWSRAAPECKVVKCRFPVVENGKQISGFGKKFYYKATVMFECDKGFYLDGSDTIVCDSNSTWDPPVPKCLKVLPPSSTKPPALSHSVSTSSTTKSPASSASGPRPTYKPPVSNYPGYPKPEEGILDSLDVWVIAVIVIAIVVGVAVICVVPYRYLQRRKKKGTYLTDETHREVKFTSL
UniProt Q9HA77: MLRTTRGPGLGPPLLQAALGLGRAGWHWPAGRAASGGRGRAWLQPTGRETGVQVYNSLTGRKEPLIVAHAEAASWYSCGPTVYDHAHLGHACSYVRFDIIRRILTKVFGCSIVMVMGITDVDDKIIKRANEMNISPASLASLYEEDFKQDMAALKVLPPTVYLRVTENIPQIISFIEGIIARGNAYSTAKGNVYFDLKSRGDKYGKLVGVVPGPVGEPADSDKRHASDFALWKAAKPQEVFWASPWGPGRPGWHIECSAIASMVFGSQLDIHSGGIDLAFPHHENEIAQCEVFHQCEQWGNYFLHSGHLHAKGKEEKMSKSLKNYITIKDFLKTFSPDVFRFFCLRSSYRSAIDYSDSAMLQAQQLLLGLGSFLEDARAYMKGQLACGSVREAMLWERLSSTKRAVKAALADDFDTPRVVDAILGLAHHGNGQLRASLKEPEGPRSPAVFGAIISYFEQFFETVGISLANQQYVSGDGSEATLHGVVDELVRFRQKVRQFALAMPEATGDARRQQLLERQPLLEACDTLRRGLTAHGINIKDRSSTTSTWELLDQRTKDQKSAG
UniProt P14635, whole entry, looked up: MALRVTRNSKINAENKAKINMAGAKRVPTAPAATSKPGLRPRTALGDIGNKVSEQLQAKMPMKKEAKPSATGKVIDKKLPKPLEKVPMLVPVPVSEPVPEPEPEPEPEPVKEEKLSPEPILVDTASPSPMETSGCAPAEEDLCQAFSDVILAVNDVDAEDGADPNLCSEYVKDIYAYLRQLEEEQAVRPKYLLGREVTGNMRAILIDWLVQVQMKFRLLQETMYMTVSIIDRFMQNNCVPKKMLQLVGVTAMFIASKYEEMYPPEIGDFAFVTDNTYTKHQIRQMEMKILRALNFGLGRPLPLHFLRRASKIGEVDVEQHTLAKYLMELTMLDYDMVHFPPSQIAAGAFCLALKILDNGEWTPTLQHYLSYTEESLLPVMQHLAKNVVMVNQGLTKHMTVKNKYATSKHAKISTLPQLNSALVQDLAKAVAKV

Compound: CN1CCC(CNc2ccc3ncc(-c4cccc(OC(F)(F)F)c4)n3n2)CC1
Assay: log2 fold change, soluble protein after heating vs DMSO (PISA); higher = thermal stabilisation; K562 lysate, 10 uM; active = over 0.2 and 3.5 SD of the protein, either way, in both replicates (recomputed)
Method in brief: (§1)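 Quantification was by TMTpro 16plex LC-MS/MS with equalised channel sums, applied to the supernatant after 21,000xg for 90 min. Samples were crude K562 extract at 1 mg/mL protein in PBS pH 7.4 with 1 mM MgCl2, treated with 10 μM compound for 30 min, heated for 3 min across 48°C-58°C, pooled and brought to 0.5% NP-40 at 4°C. Values are log-two fold changes in thermal stability relative to solvent controls, from duplicates.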

Target | log2 fold change
CASP2 (UniProt P42575) | inactive: 0.077
CCDC50 isoform 2 (UniProt Q8IVM0) | inactive: 0.033
CCDC58 (UniProt Q4VC31) | inactive: -0.065
CARM1 (UniProt Q86X55) | inactive: 0.035
CCDC82 (UniProt Q8N4S0) | inactive: 0.051
CCDC57 (UniProt Q2TAC2) | inactive: 0.041
CCT8 (UniProt P50990) | inactive: 0.014
CCDC124 (UniProt Q96CT7) | inactive: -0.009
CBX1 (UniProt P83916) | inactive: -0.111
CCZ1 (UniProt P86791) | inactive: 0.015
CCT3 (UniProt P49368) | inactive: -0.001
CBWD2 (UniProt Q8IUF1) | inactive: -0.064
CAT (UniProt P04040) | inactive: 0.026
CCNA2 (UniProt P20248) | inactive: 0.169
CBS (UniProt P35520) | inactive: 0.025
CCDC88C (UniProt Q9P219) | inactive: 0.018
CC2D1A (UniProt Q6P1N0) | inactive: -0.036

Target | log2 fold change
CCDC90B (UniProt Q9GZT6) | inactive: -0.093
CARD8 isoform 5 (UniProt Q9Y2G2) | inactive: 0.251
CC2D1B isoform 2 (UniProt Q5T0F9) | inactive: 0.048
CBFB isoform 2 (UniProt Q13951) | inactive: 0.088
CD55 isoform 7 (UniProt P08174) | inactive: 0.043
CCDC91 (UniProt Q7Z6B0) | inactive: -0.026
CCT7 (UniProt Q99832) | inactive: 0.002
CBLB (UniProt Q13191) | inactive: 0.098
CD2AP (UniProt Q9Y5K6) | inactive: 0.011
CCNL2 (UniProt Q96S94) | inactive: -0.073
CASTOR2 (UniProt A6NHX0) | inactive: 0.013
CD46 isoform 2 (UniProt P15529) | inactive: -0.018
CD47 (UniProt Q08722) | inactive: 0.073
CARS2 (UniProt Q9HA77) | inactive: 0.073
CCNB1 (UniProt P14635) | inactive: -0.012
CBFA2T3 (UniProt O75081) | inactive: -0.018

Compound: CN1CCN(CCOc2cc(OC3CCOCC3)c3c(Nc4c(Cl)ccc5c4OCO5)ncnc3c2)CC1 [saracatinib]
Assay: as above
Method in brief: as §1

Target | log2 fold change
CASP2 (UniProt P42575) | inactive: -0.009
CCDC50 isoform 2 (UniProt Q8IVM0) | inactive: 0.037
CCDC58 (UniProt Q4VC31) | inactive: -0.013
CARM1 (UniProt Q86X55) | inactive: -0.005
CCDC82 (UniProt Q8N4S0) | inactive: 0.006
CCDC57 (UniProt Q2TAC2) | inactive: -0.059
CCT8 (UniProt P50990) | inactive: -0.002
CCDC124 (UniProt Q96CT7) | inactive: -0.011
CBX1 (UniProt P83916) | inactive: -0.003
CCZ1 (UniProt P86791) | inactive: 0
CCT3 (UniProt P49368) | inactive: 0.001
CBWD2 (UniProt Q8IUF1) | inactive: -0.016
CAT (UniProt P04040) | inactive: 0.016
CCNA2 (UniProt P20248) | inactive: 0.001
CBS (UniProt P35520) | inactive: -0.014
CCDC88C (UniProt Q9P219) | inactive: -0.079
CC2D1A (UniProt Q6P1N0) | inactive: 0.019

Target | log2 fold change
CCDC90B (UniProt Q9GZT6) | inactive: -0.018
CARD8 isoform 5 (UniProt Q9Y2G2) | inactive: -0.056
CC2D1B isoform 2 (UniProt Q5T0F9) | inactive: 0.012
CBFB isoform 2 (UniProt Q13951) | inactive: 0.041
CD55 isoform 7 (UniProt P08174) | inactive: 0.009
CCDC91 (UniProt Q7Z6B0) | inactive: 0.02
CCT7 (UniProt Q99832) | inactive: -0.023
CBLB (UniProt Q13191) | inactive: -0.022
CD2AP (UniProt Q9Y5K6) | inactive: -0.006
CCNL2 (UniProt Q96S94) | inactive: 0
CASTOR2 (UniProt A6NHX0) | inactive: -0.024
CD46 isoform 2 (UniProt P15529) | inactive: 0.065
CD47 (UniProt Q08722) | inactive: 0.05
CARS2 (UniProt Q9HA77) | inactive: 0.058
CCNB1 (UniProt P14635) | inactive: 0.002
CBFA2T3 (UniProt O75081) | inactive: 0.021

Compound: CN1CCN(c2nc(C3=C(c4c[nH]c5ccccc45)C(=O)NC3=O)c3ccccc3n2)CC1 [sotrastaurin]
Assay: as above
Method in brief: as §1

Target | log2 fold change
CASP2 (UniProt P42575) | inactive: -0.009
CCDC50 isoform 2 (UniProt Q8IVM0) | inactive: -0.02
CCDC58 (UniProt Q4VC31) | inactive: 0.022
CARM1 (UniProt Q86X55) | inactive: -0.025
CCDC82 (UniProt Q8N4S0) | inactive: 0.036
CCT8 (UniProt P50990) | inactive: -0.01
CCDC124 (UniProt Q96CT7) | inactive: 0.011
CBX1 (UniProt P83916) | inactive: 0.038
CCZ1 (UniProt P86791) | inactive: -0.003
CCT3 (UniProt P49368) | inactive: -0.017
CBWD2 (UniProt Q8IUF1) | inactive: 0.035
CAT (UniProt P04040) | inactive: 0
CCNA2 (UniProt P20248) | inactive: 0
CBS (UniProt P35520) | inactive: 0.023
CCDC88C (UniProt Q9P219) | inactive: -0.014
CC2D1A (UniProt Q6P1N0) | inactive: 0.026

Target | log2 fold change
CCDC90B (UniProt Q9GZT6) | inactive: -0.06
CARD8 isoform 5 (UniProt Q9Y2G2) | inactive: -0.076
CC2D1B isoform 2 (UniProt Q5T0F9) | inactive: 0.044
CBFB isoform 2 (UniProt Q13951) | inactive: -0.003
CD55 isoform 7 (UniProt P08174) | inactive: 0.003
CCDC91 (UniProt Q7Z6B0) | inactive: 0.003
CCT7 (UniProt Q99832) | inactive: -0.011
CBLB (UniProt Q13191) | inactive: -0.023
CD2AP (UniProt Q9Y5K6) | inactive: 0.001
CCNL2 (UniProt Q96S94) | inactive: 0.091
CASTOR2 (UniProt A6NHX0) | inactive: 0.042
CD46 isoform 2 (UniProt P15529) | inactive: 0.056
CD47 (UniProt Q08722) | inactive: -0.003
CARS2 (UniProt Q9HA77) | inactive: -0.019
CCNB1 (UniProt P14635) | inactive: -0.038
CBFA2T3 (UniProt O75081) | inactive: 0.015
